Data as given in PubChem BioAssay AID652259 (Drosophila RNAi Screening Center, 2013).

Screen: 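Knock-downs that push a Wingless-driven reporter up or down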 (primary screen)
System: Drosophila clone 8 imaginal disc epithelial cells
Reagents: long dsRNA against Drosophila genes
Challenge: pathway stimulated by co-transfected Wingless expression plasmid
Detection: 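Firefly luciferase from a tcf-site Wingless reporter, measured alongside co-transfected Renilla luciferase that tracks transfection; pathway stimulated by a Wingless plasmid; the firefly-to-Renilla ratio is not deposited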
Direction: firefly reporter light: higher = more Wg reporter light, before normalisation; Renilla control light: higher = more transfected or surviving cells
Active means: 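Strong candidates differ from their plate mean by at least two out of four per-plate statistical tests; weak candidates meet just one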
Meaning of the calls: active = candidate regulator (raises or lowers reporter); inactive = not a candidate
The screen tested about 22,000 reagents; below is a random part of those with a known target gene and a result. Over the whole deposit, 233 (1.1%) got an active call. 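Light values are raw, unnormalised plate reads; the ratio scores behind the reporter calls were not deposited.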 Unmarked entries are inactive. Reagents against one gene are numbered here. Names joined by + are all predicted targets of the reagent. Not given: the amount of reagent, the time to read-out, the dose of the treatment.

firefly reporter light, replicate 1	firefly reporter light, replicate 2	Renilla control light, replicate 1	Renilla control light, replicate 2	predicted target	reagent
21618		9243		upd1 (unpaired 1)	1
21954		11556		Prosbeta5R2 (Proteasome beta5 subunit-related 2)	1
6.38e5	6.81e5	2.89e5	1.69e5	Or98P (Odorant receptor 98a pseudogene)	1
2372	6262	980	2688	CG4375	1
14151		4836		CG4830	1
2354	7532	882	3465	CG42820	1
4533		875		rtp (retinophilin)	1
8833		2954		Spn55B (Serpin 55B)	1
3.74e5	3.95e5	1.35e5	1.37e5	Spn55B (Serpin 55B)	2
7632		2996		CG13202	1
17072		10960		Rab3-GEF (Rab3 GDP-GTP exchange factor)	1
16824		9030		Rab3-GEF (Rab3 GDP-GTP exchange factor)	2
20773		3746		Rab3-GEF (Rab3 GDP-GTP exchange factor)	3
3431	6931	1511	2712	CG6126	1
2550	8338	1207	1200	CG9550	1
2999	7130	944	1449	Sap47 (Synapse-associated protein 47kD)	1
19762		14348		danr (distal antenna-related)	1
17754		3080		nSyb (neuronal Synaptobrevin)	1
7.18e5	7.17e5	2.74e5	1.81e5	nSyb (neuronal Synaptobrevin)	2

Laid out differently: results already given.
{"predicted target": "Rab3-GEF (Rab3 GDP-GTP exchange factor)", "reagent": 2, "firefly reporter light, replicate 1": 16824, "Renilla control light, replicate 1": 9030}
{"predicted target": "Rab3-GEF (Rab3 GDP-GTP exchange factor)", "reagent": 3, "firefly reporter light, replicate 1": 20773, "Renilla control light, replicate 1": 3746}
{"predicted target": "CG6126", "reagent": 1, "firefly reporter light, replicate 1": 3431, "firefly reporter light, replicate 2": 6931, "Renilla control light, replicate 1": 1511, "Renilla control light, replicate 2": 2712}
{"predicted target": "CG9550", "reagent": 1, "firefly reporter light, replicate 1": 2550, "firefly reporter light, replicate 2": 8338, "Renilla control light, replicate 1": 1207, "Renilla control light, replicate 2": 1200}
{"predicted target": "Sap47 (Synapse-associated protein 47kD)", "reagent": 1, "firefly reporter light, replicate 1": 2999, "firefly reporter light, replicate 2": 7130, "Renilla control light, replicate 1": 944, "Renilla control light, replicate 2": 1449}
{"predicted target": "danr (distal antenna-related)", "reagent": 1, "firefly reporter light, replicate 1": 19762, "Renilla control light, replicate 1": 14348}

The results go on:
firefly reporter light, replicate 1	firefly reporter light, replicate 2	Renilla control light, replicate 1	Renilla control light, replicate 2	predicted target	reagent
5084	10935	651	1845	Polr2E (RNA polymerase II, I and III subunit E)	1
2435	3761	902	1333	CG3651	1
7686		2499		RnrS (Ribonucleoside diphosphate reductase small subunit)	1
13884		4235		Pcyt1 (Phosphocholine cytidylyltransferase 1)	1
2471	6101	1037	3353	Lpt (Lost PHDs of trr)	1
5987		2328		Lpt (Lost PHDs of trr)	2
2445	8066	941	3972	Art8 (Arginine methyltransferase 8)	1
1562	4632	725	1520	spoon (spoonbill)	1
16970		3287		nvy (nervy)	1
21872		4380		CG10311	1
14353		2165		CG3734	1
4803	5968	534	3200	RpL22-like (Ribosomal protein L22-like)	1
3179	10049	979	3680	CG31802	1
2664	3656	784	1328	CG42232	1
3405	5521	1477	2311	CG42232	2
11821		2549		MED8 (Mediator complex subunit 8)	1
14816		9218		RhoGAP18B (Rho GTPase activating protein at 18B)	1
14960		8966		RhoGAP18B (Rho GTPase activating protein at 18B)	2
21059		7225		RhoGAP18B (Rho GTPase activating protein at 18B)	3
23331		9051		RhoGAP18B (Rho GTPase activating protein at 18B)	4
7768		2613		CG7966	1
3466	5141	763	2272	CG43326 + CG43325	1
32301		13857		CG3823	1
17271		8118		CG15725	1
2517	8272	939	3120	CNT1 (Concentrative nucleoside transporter 1)	1
3065	5498	1577	2892	CG11030	1
10313		3041		Mettl2 (Methyltransferase like 2)	1
12440		5915		CG30345	1
2803		1066		CG34244	1
43827		8908		Octbeta1R (Octopamine beta1 receptor)	1
